Here are results for ten molecules from doi:10.1101/2021.01.28.428700.

Protein sequences, listed by entry. Tags and fused reporters are not part of them. Lines headed by an entry give the natural chain unless they say otherwise; changes in a name come on top. Chains listed by the source or under a name are the forms on record and can include a tag or linker. Residues count along the entry.
UniProt P29317: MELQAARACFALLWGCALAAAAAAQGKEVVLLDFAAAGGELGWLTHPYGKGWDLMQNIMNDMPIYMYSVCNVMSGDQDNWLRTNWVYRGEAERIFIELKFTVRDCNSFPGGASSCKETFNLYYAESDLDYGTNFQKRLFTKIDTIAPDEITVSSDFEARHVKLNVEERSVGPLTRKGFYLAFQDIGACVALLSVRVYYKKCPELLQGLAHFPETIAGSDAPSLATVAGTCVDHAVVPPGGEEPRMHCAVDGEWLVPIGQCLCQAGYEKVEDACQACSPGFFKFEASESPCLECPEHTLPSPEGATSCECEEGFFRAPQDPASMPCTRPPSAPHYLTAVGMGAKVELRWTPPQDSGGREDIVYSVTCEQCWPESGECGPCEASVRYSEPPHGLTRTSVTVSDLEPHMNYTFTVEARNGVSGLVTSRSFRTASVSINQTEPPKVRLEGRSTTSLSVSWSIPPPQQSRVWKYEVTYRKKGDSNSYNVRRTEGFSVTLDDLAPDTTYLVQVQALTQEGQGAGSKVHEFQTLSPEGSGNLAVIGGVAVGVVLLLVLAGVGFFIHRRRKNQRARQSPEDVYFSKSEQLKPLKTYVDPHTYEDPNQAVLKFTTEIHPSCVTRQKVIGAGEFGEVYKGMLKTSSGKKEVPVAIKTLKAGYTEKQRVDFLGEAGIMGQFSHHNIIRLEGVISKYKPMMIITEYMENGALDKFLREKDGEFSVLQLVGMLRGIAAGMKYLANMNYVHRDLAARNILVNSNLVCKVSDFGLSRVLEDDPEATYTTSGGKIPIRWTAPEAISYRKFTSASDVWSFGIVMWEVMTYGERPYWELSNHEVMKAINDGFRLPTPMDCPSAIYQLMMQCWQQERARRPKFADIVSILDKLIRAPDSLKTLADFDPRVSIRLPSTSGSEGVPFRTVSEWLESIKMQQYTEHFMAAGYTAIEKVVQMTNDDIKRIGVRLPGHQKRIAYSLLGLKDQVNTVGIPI
EphA2 expressed in HEK293 cells (pulldown with Ephexin4): residues 24-976 of P29317
EphA2 3E mutant (T898E/S899E/S901E), full length, labeled with mTurquoise or EYFP (P29317, form named): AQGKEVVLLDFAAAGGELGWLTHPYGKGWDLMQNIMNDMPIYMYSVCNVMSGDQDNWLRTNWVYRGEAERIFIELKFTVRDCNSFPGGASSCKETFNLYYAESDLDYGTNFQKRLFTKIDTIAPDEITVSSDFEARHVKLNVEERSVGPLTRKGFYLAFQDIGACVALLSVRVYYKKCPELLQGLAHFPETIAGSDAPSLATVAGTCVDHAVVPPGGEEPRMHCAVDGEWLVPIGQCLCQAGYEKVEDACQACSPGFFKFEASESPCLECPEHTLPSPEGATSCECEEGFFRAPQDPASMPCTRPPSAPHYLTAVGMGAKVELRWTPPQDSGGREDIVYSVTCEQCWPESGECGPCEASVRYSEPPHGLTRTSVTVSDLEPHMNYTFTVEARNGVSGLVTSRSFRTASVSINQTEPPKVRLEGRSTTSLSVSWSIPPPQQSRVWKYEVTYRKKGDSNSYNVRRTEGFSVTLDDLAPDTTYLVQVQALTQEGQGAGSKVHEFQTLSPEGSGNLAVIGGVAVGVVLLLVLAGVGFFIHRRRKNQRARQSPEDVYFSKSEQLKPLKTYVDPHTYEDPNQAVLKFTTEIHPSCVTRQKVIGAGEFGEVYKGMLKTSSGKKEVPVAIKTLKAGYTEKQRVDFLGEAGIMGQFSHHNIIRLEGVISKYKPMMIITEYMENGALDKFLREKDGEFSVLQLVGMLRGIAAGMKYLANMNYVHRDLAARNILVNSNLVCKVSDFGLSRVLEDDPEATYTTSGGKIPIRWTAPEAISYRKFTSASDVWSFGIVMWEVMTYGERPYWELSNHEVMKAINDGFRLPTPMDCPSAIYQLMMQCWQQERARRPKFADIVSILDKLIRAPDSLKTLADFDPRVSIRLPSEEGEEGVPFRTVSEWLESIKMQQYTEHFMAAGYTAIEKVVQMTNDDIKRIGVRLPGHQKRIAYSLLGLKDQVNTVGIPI
EphA2 5A mutant (S892A/S897A/T898A/S899A/S901A), full length, labeled with mTurquoise or EYFP (P29317, form named): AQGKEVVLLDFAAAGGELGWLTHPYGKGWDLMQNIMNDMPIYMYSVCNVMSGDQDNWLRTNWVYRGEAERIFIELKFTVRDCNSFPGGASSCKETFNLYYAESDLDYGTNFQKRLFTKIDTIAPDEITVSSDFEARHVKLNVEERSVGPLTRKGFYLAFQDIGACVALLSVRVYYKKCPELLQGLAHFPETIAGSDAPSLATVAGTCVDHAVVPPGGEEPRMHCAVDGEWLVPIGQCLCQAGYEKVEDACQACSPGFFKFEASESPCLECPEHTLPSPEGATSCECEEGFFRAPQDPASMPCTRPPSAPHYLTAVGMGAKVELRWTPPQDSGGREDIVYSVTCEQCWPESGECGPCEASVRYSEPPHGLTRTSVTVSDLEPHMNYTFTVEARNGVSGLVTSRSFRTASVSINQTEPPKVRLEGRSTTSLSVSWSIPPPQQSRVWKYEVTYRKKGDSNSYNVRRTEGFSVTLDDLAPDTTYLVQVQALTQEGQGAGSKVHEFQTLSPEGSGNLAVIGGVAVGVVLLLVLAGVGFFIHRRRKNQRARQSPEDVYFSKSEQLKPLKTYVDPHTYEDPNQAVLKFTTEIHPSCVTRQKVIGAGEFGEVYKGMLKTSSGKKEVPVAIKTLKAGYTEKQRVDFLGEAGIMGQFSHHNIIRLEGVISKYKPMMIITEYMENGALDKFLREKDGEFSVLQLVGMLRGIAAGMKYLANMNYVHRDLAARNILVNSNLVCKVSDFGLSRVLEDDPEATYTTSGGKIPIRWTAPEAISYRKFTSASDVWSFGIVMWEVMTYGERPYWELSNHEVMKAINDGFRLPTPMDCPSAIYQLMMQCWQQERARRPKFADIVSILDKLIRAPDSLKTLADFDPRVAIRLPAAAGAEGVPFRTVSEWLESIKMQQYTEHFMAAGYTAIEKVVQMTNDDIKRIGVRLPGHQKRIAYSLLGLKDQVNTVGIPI
EphA2 5E mutant (S892E/S897E/T898E/S899E/S901E), full length, labeled with mTurquoise or EYFP (P29317, form named): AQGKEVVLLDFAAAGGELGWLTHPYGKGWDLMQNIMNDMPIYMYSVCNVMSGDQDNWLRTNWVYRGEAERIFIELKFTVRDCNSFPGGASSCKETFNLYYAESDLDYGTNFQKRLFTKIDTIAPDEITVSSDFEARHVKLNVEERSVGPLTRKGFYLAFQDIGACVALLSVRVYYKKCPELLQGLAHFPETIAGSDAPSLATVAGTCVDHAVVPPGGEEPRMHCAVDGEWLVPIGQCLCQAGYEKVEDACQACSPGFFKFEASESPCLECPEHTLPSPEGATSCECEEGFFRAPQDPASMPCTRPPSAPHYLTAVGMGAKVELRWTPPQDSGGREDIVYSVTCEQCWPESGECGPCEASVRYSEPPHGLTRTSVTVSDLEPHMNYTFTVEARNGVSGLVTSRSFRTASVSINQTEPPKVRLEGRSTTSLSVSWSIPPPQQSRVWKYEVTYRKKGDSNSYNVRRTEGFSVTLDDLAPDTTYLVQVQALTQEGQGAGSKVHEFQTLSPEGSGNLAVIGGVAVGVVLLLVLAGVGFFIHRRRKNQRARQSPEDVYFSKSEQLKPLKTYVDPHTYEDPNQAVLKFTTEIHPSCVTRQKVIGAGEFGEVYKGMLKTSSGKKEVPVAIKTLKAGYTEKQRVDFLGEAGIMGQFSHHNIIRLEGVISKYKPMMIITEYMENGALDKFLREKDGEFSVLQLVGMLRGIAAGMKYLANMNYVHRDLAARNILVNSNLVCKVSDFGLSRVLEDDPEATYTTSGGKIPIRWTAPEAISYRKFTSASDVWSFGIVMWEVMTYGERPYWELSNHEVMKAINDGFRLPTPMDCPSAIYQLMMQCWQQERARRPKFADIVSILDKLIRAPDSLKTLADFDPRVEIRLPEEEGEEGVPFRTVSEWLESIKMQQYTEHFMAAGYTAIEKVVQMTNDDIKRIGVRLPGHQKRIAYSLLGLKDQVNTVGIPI
EphA2 ASAAA mutant (S892A/T898A/S899A/S901A), full length, labeled with mTurquoise or EYFP (P29317, form named): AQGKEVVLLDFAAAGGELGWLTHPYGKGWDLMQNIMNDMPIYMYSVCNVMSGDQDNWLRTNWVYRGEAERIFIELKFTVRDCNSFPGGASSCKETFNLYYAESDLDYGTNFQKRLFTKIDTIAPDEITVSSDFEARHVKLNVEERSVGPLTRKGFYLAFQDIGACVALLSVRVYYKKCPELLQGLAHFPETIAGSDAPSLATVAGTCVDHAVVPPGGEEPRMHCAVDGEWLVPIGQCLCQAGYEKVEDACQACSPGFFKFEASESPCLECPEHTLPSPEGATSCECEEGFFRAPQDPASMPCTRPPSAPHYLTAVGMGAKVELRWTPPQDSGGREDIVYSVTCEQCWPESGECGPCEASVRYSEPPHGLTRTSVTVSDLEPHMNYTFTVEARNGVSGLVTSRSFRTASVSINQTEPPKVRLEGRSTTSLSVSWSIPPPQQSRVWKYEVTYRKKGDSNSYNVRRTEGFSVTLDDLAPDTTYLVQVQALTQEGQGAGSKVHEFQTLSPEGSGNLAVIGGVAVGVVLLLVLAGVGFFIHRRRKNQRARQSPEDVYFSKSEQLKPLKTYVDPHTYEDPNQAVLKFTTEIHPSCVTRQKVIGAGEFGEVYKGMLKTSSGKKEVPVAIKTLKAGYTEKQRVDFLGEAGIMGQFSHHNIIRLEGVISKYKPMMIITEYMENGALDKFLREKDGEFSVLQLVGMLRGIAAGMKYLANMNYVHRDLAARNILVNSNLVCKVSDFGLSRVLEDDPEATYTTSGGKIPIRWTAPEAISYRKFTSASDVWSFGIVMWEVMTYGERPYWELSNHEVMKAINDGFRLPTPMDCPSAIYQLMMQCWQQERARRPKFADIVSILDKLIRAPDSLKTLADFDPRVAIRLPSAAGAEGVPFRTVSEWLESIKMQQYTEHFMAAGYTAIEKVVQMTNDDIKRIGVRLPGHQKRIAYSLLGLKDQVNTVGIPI
EphA2 S892A mutant, full length, labeled with mTurquoise or EYFP (P29317, form named): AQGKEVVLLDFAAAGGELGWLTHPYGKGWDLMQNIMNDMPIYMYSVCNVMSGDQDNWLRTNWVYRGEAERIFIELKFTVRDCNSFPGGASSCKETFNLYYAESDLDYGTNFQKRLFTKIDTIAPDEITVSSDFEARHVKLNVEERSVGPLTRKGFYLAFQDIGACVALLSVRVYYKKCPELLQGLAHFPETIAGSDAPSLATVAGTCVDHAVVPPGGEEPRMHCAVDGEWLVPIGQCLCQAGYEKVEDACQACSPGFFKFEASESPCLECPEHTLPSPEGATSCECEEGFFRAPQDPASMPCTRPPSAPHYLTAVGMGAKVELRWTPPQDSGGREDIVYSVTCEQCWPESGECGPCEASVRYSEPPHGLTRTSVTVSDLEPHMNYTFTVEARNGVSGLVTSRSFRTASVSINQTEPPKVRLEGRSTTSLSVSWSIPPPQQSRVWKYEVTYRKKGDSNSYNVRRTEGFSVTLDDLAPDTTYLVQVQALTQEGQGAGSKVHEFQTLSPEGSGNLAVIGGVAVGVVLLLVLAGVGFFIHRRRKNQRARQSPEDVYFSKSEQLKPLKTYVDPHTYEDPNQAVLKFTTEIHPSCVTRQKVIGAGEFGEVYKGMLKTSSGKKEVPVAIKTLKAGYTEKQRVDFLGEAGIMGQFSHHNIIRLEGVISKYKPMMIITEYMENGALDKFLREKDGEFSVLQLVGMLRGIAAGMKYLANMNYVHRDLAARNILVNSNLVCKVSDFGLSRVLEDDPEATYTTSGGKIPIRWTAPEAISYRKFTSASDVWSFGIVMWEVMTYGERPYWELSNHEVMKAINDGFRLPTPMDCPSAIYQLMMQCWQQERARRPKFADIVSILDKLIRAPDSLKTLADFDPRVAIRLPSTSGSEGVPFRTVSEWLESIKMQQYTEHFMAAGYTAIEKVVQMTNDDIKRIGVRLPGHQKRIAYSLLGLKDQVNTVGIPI

No constants are given. Whether binding was seen depends on the method and setting. For some assays here: In cells and extracts the contact can be indirect. Some binding calls cover weakened binding; strength is not graded here.

Assay [1] concerns the target EphA2 3E mutant (T898E/S899E/S901E), full length, labeled with mTurquoise or EYFP (human) (UniProt P29317). Kind of assay: FRET or BRET. On the technique in general: BRET reads energy transfer from a luciferase to a nearby fluorophore.
Assay [2] addresses EphA2 5A mutant (S892A/S897A/T898A/S899A/S901A), full length, labeled with mTurquoise or EYFP (human) (UniProt P29317). Kind of assay: FRET or BRET.
For assay [3], the target named is EphA2 5E mutant (S892E/S897E/T898E/S899E/S901E), full length, labeled with mTurquoise or EYFP (human) (UniProt P29317). Kind of assay: FRET or BRET.
The target of assay [4] is EphA2 ASAAA mutant (S892A/T898A/S899A/S901A), full length, labeled with mTurquoise or EYFP (human) (UniProt P29317). Kind of assay: FRET or BRET.
Assay [5] has as its target EphA2 S892A mutant, full length, labeled with mTurquoise or EYFP (human) (UniProt P29317). Kind of assay: FRET or BRET.
For assay [6], the target named is EphA2 S892E mutant, full length, labeled with mTurquoise or EYFP (human) (UniProt P29317). Kind of assay: FRET or BRET.
For assay [7], the target named is EphA2 S897A mutant, full length, labeled with mTurquoise or EYFP (human) (UniProt P29317). Kind of assay: FRET or BRET.
Assay [8] deals with EphA2 S897E mutant, full length, labeled with mTurquoise or EYFP (human) (UniProt P29317). Kind of assay: FRET or BRET.
The target of assay [9] is EphA2 intracellular region (residues D590-I976), wild type (human) (UniProt P29317). Kind of assay: AUC.
Assay [10] deals with EphA2 expressed in HEK293 cells (pulldown with Ephexin4) (human) (UniProt P29317). Kind of assay: pull-down.
Assay [11] has as its target EphA2 S897A expressed in HEK293 cells (pulldown with Ephexin4) (human) (UniProt P29317). Kind of assay: pull-down.

“EphA2 3E mutant (T898E/S899E/S901E), full length, labeled with mTurquoise or EYFP (from UniProt P29317 24-976) (receptor)”: the binding result in assay [1] is “binds”.

For “EphA2 5A mutant (S892A/S897A/T898A/S899A/S901A), full length, labeled with mTurquoise or EYFP (from UniProt P29317 24-976) (receptor)”, in [2], the binding entry is “binds”.

Take “EphA2 5E mutant (S892E/S897E/T898E/S899E/S901E), full length, labeled with mTurquoise or EYFP (from UniProt P29317 24-976) (receptor)”: in [3], the binding result was “binds”.

With “EphA2 ASAAA mutant (S892A/T898A/S899A/S901A), full length, labeled with mTurquoise or EYFP (from UniProt P29317 24-976) (receptor)”, the binding entry in assay [4] is “binds”.

For the molecule “EphA2 S892A mutant, full length, labeled with mTurquoise or EYFP (from UniProt P29317 24-976) (receptor)”, in assay [5], the binding entry is recorded as “binds”.

For “EphA2 S892E mutant, full length, labeled with mTurquoise or EYFP (from UniProt P29317 24-976) (receptor)”, the binding entry in [6] is “binds”.

Consider “EphA2 S897A mutant, full length, labeled with mTurquoise or EYFP (from UniProt P29317 24-976) (receptor)”, for which the binding entry in assay [7] is on record as “binds”.

For “EphA2 S897E mutant, full length, labeled with mTurquoise or EYFP (from UniProt P29317 24-976) (receptor)”, in assay [8], the binding result was “binds”.

Regarding “EphA2 intracellular region (residues D590-I976), wild type (from UniProt P29317 590-976) (domain or fragment)”, the binding result in [9] was “no binding (tested: ~9 μM)”.

B1: Ephexin4 expressed in HEK293 cells (protein, UniProt Q5VV41 1-709)
chain: MAQRHSDSSLEEKLLGHRFHSELRLDAGGNPASGLPMVRGSPRVRDDAAFQPQVPAPPQPRPPGHEEPWPIVLSTESPAALKLGTQQLIPKSLAVASKAKTPARHQSFGAAVLSREAARRDPKLLPAPSFSLDDMDVDKDPGGMLRRNLRNQSYRAAMKGLGKPGGQGDAIQLSPKLQALAEEPSQPHTRSPAKNKKTLGRKRGHKGSFKDDPQLYQEIQERGLNTSQESDDDILDESSSPEGTQKVDATIVVKSYRPAQVTWSQLPEVVELGILDQLSTEERKRQEAMFEILTSEFSYQHSLSILVEEFLQSKELRATVTQMEHHHLFSNILDVLGASQRFFEDLEQRHKAQVLVEDISDILEEHAEKHFHPYIAYCSNEVYQQRTLQKLISSNAAFREALREIERRPACGGLPMLSFLILPMQRVTRLPLLMDTLCLKTQGHSERYKAASRALKAISKLVRQCNEGAHRMERMEQMYTLHTQLDFSKVKSLPLISASRWLLKRGELFLVEETGLFRKIASRPTCYLFLFNDVLVVTKKKSEESYMVQDYAQMNHIQVEKIEPSELPLPGGGNRSSSVPHPFQVTLLRNSEGRQEQLLLSSDSASDRARWIVALTHSERQWQGLSSKGDLPQVEITKAFFAKQADEVTLQQADVVLVLQQEDGWLYGERLRDGETGWFPEDFARFITSRVAVEGNVRRMERLRVETDV
With B1, the binding result in assay [10] and in [11] was “binds weakly” throughout.
